Test results from PubChem BioAssay AID2551 (National Center for Advancing Translational Sciences (NCATS), 2010).
Screen size: about 310,000 compounds; about 17,000 (5.5%) were called active. The inconclusive results got no clear call from the source; some entries with a clear call stand among them for comparison. Calls come from the whole dose curve; as a rule, active = well fitted inhibition curve with a large enough effect; inconclusive = small, poorly fitted or top-dose-only effect, or effect the other way; inactive = no such curve, though single readings can be large or run the other way. Potencies beside an inconclusive call are fits to weak or partial responses and may not hold up.

By UniProt entry, the sequences of proteins in these tests, tags left out. Where a name states a change or a piece, a line headed by the entry shows the natural chain unless it says otherwise.
UniProt P51450: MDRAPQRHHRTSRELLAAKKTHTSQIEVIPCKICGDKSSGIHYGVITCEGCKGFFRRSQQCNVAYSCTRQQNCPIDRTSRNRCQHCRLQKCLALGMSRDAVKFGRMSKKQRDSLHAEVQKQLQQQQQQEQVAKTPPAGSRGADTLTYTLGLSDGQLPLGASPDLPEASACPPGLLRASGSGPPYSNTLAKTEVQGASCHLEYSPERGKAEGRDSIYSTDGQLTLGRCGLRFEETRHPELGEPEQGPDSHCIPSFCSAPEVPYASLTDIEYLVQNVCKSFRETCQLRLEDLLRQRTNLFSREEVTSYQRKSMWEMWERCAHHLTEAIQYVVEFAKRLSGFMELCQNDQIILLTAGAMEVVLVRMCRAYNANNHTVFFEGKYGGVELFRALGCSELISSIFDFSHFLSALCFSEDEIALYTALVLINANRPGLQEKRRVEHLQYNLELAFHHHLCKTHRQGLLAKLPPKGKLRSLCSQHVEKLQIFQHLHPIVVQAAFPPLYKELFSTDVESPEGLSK

Biological target: Nuclear receptor ROR-gamma (Mus musculus) (UniProt P51450)
Experiment: qHTS for inhibitors of ROR gamma transcriptional activity; note: nearly all actives have a fitted effect of over 60% in size
Details: Drosophila S2 Gal4-RORgamma UAS-luciferase reporter, 20 h; series mostly up to 53.6 µM
Procedure, shortened: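 Drosophila S2 cells stably expressing Gal4-DBD/mouse RORγ fusion under metallothionein promoter plus UAS-luciferase; compound 1 h, then 700 uM CuSO4 induction for 20 h at ambient temperature; inhibition read as reduced luminescence.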
Potency is the fitted concentration of half-maximal effect.

| Compound | Potency |
| --- | --- |
| COc1ccc(-c2oc3cccnc3c2C#CCO)cc1 | inconclusive: 11.2 µM [inhibitor, single point] |
| Cc1cc(C)c2oc(C(=O)Nc3ccc(S(=O)(=O)Nc4nccc(C)n4)cc3)cc(=O)c2c1 | inconclusive: 0.562 µM [inhibitor, single point] |
| O=C(Nc1nc2ccccc2s1)c1ccc([N+](=O)[O-])o1 | inactive |
| CC(C(=O)O/N=C(\N)c1ccccn1)c1ccc([N+](=O)[O-])cc1 (stereo not drawn) | inactive |
| COc1ccc(/C(C)=N\NC(=O)c2ccc(-c3ccccc3)cc2)c(F)c1 | inconclusive: 35.5 µM [inhibitor, single point] |
| Cc1cc(-c2ccccc2)nn1-c1nc2c(c(=O)[nH]c(=O)n2C)n1C | inconclusive: 1 µM [activator, single point] |
| CC(C)[C@H](NC(=O)C1CC(=O)N(c2ccc3c(c2)OCO3)C1)C(=O)NC1CCCC1 (stereo partly drawn) | inconclusive: 35.5 µM [activator, single point] |
| COc1ccc(C(=O)N/N=C(\C)c2ccccn2)cc1OC | active: 0.355 µM |
| CCc1nnc(NC(=O)C2CCN(c3nccc(C)n3)CC2)s1 | inactive |
| N#CC(C(=O)C1CCCCC1)c1nc2ccccc2[nH]1 (stereo not drawn) | active: 3.55 µM |
| S=c1[nH]ncn1/N=C/c1ccccc1 | inconclusive: 17.8 µM [inhibitor, single point] |
| CC1=C(CC/C(C)=N/NC(N)=S)C(C)(C)CCC1 | active: 1.78 µM |
| Cc1ccccc1NCC(=O)N/N=C/C(Br)=C/c1ccccc1 | inconclusive: 35.5 µM [inhibitor, single point] |
| COC(=O)Cc1ccc(NC(=S)NCc2ccco2)cc1 | inconclusive: 0.0224 µM [inhibitor, full curve, poor fit] |
| Cc1cccc(CSc2ccc3nnc(-c4ccccn4)n3n2)c1 | inconclusive: 0.562 µM [inhibitor, full curve, poor fit] |
| Fc1ccc(C(c2nnnn2C2CCCC2)N2CCN(Cc3ccccc3)CC2)cc1 (stereo not drawn) | inactive |
| O=C1CN(C(=O)c2ccc(Br)o2)C(c2ccc(F)cc2)c2cc(Cl)ccc2N1 (stereo not drawn) | inconclusive: 14.1 µM [activator, single point] |
| CCOC(=O)C1(CCCc2ccccc2)CCN(C(=O)CCCn2cncn2)CC1 | inconclusive: 5.01 µM [activator, partial curve] |
| Cc1cccc(Nc2nnc(SCC(=O)Nc3cccc(S(=O)(=O)N4CCCCC4)c3)s2)c1 | inconclusive: 17.8 µM [activator, partial curve] |
| Cc1ccccc1NS(=O)(=O)c1cc(C(=O)NCc2ccco2)ccc1C | inactive |
| Cc1ccc(S(=O)(=O)N(C)c2cc(S(=O)(=O)N3CCC(C)CC3)c(C)cc2C)cc1 | inconclusive: 35.5 µM [activator, single point] |
| Cc1nnc(SCCC(=O)Nc2ccc(Cl)cc2)o1 | inconclusive: 20 µM [activator, single point] |
| Cc1nc(=S)c2ccccc2[nH]1 | active: 10 µM |
| CC1(C)CC(=O)C(N=Nc2ccc(F)cc2)=C(O)C1 | inactive |

By substructure: those above with an aryl methoxy group (3)

| Compound | Potency |
| --- | --- |
| COc1ccc(-c2oc3cccnc3c2C#CCO)cc1 | inconclusive: 11.2 µM [inhibitor, single point] |
| COc1ccc(/C(C)=N\NC(=O)c2ccc(-c3ccccc3)cc2)c(F)c1 | inconclusive: 35.5 µM [inhibitor, single point] |
| COc1ccc(C(=O)N/N=C(\C)c2ccccn2)cc1OC | active: 0.355 µM |

Additional entries follow.

| Compound | Potency |
| --- | --- |
| CCc1c(C)[nH]c2ccc(OC)cc2c1=S | inactive |
| O=C1/C(=C/c2ccco2)CCc2ccccc21 | inconclusive: 0.0891 µM [activator, full curve, poor fit] |
| CCOC(=O)C1=C(C)NC(=S)N(C(C)=O)C1c1ccc(OC)c(OC)c1 (stereo not drawn) | inconclusive: 22.4 µM [inhibitor, single point] |
| Cc1ccc(S(=O)(=O)N2c3ccccc3NC(=O)C2CC(=O)Nc2ccccc2)cc1 (stereo not drawn) | inconclusive: 22.4 µM [activator, single point] |
| COCc1nnc(NC(=O)c2cc(C(=O)OC)cc([N+](=O)[O-])c2)s1 | inactive |
| Cc1cc(C(=O)NNC(=S)NCC(C)C)no1 | active: 7.94 µM |
| COc1ccc(Nc2nc(N)nc(CN3CCc4ccccc4C3)n2)cc1 | inactive |
| CC1(C)Cc2c(c(N3CCOCC3)nc3sc4c(NCc5ccccc5)nnnc4c23)CS1 | inactive |
| CCOC(=O)c1ccc(Nc2ncnc3ccc(C)cc23)cc1 | inconclusive: 1.12 µM [activator, partial curve] |
| CCn1c(CNc2nc3ccccc3n2C(C)C)nc2ccccc21 | inconclusive: 35.5 µM [inhibitor, single point] |
| COc1ccc2oc(-c3ccc(C)c(NC(=O)c4ccc(N5CCOCC5)c([N+](=O)[O-])c4)c3)nc2c1 | inconclusive: 35.5 µM [inhibitor, single point] |
| O=C(COc1ccc(Cl)cc1)N/N=C/c1cccc2cccnc12 | active: 12.6 µM |
| C=C(CO)C1Cc2c(ccc3c(=O)c4c(oc23)COc2cc(OC)c(OC)cc2-4)O1 (stereo not drawn) | inactive |
| CCN(CC)S(=O)(=O)c1cccc(-c2nc3n(n2)Cc2ccccc2-3)c1 | inactive |
| C=CCOc1ccc(C(=O)Nc2ncn[nH]2)cc1 | active: 11.2 µM |
| O=C(CC(=O)c1ccccc1)Nc1ccccc1C(F)(F)F | inactive |
| O=C(CSc1ccc2nnc(CCNS(=O)(=O)c3ccccc3)n2n1)Nc1nc2ccccc2s1 | inconclusive: 15.8 µM [activator, single point] |
| O=C(NNC(=S)Nc1ccccc1C(F)(F)F)c1ccc(Br)o1 | inconclusive: 22.4 µM [inhibitor, partial curve, poor fit] |
| Cc1ccc(NC(=O)COC(=O)C2(c3ccc(Cl)cc3)CCCC2)cc1 | inconclusive: 15.8 µM [activator, single point] |
| CSc1ccccc1-c1nnc(-c2ccc(Cl)cc2Cl)o1 | inconclusive: 22.4 µM [inhibitor, single point] |
| Cc1ccc(OCC(=O)NCCCNC(=O)c2ccccn2)cc1C | inactive |
| S=c1[nH]c2ccccc2c2ccccc12 | inconclusive: 8.91 µM [inhibitor, partial curve, poor fit] |
| O=c1n(Cc2ccccc2Cl)nc2n1-c1ccccc1SC2 | inconclusive: 11.2 µM [activator, partial curve] |
| CC(C)Oc1cccc(C2NC(=O)c3ccccc3O2)c1 (stereo not drawn) | inconclusive: 6.31 µM [activator, partial curve] |
